Laboratory results as given in the supplement of paper PMC7666118.
The list shows a part of the results.

Protein sequences, listed by entry. Tags and fused reporters are not part of them. Lines headed by an entry give the natural chain unless they say otherwise; changes in a name come on top.
UniProt O00214: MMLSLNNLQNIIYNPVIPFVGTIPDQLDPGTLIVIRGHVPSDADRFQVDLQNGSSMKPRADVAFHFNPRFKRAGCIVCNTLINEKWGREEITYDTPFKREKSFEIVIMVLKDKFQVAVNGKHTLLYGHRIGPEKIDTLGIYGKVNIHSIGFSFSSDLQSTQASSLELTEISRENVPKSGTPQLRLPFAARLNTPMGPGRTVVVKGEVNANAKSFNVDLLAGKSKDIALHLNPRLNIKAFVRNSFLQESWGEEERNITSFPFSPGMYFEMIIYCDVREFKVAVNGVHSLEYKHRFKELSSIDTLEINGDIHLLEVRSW
UniProt A2RU67: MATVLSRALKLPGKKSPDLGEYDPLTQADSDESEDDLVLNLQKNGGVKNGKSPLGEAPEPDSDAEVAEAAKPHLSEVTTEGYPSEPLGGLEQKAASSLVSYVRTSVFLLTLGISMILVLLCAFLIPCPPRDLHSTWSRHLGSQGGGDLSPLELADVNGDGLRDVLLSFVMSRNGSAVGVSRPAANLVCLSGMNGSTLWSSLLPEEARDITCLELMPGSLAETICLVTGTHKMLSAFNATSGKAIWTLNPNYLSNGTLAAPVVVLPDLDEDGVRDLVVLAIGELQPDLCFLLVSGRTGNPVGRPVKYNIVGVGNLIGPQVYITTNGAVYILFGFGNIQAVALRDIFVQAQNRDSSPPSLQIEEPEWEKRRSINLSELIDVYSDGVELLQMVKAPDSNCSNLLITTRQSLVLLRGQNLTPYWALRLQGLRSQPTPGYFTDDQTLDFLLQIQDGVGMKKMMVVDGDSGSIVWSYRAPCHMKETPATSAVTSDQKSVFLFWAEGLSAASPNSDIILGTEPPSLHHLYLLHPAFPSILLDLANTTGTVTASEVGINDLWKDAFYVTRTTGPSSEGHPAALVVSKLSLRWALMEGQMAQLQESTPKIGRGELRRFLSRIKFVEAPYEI
UniProt P53671: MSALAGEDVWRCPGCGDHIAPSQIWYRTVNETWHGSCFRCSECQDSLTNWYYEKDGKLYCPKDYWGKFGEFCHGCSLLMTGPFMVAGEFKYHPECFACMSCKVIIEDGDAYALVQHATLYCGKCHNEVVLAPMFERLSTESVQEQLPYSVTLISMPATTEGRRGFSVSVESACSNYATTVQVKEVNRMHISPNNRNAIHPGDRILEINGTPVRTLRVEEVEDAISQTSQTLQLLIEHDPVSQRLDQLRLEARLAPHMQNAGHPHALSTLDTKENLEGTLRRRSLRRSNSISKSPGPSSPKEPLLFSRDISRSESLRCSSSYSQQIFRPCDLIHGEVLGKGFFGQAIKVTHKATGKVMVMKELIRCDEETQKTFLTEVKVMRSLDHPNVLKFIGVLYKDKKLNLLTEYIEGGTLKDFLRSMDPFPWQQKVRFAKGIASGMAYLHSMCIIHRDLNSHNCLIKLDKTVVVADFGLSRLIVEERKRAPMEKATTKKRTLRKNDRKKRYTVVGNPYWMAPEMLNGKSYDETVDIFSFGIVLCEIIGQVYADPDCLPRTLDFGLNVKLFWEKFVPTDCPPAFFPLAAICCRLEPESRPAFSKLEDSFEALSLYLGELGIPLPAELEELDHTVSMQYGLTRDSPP
UniProt Q9ULH0: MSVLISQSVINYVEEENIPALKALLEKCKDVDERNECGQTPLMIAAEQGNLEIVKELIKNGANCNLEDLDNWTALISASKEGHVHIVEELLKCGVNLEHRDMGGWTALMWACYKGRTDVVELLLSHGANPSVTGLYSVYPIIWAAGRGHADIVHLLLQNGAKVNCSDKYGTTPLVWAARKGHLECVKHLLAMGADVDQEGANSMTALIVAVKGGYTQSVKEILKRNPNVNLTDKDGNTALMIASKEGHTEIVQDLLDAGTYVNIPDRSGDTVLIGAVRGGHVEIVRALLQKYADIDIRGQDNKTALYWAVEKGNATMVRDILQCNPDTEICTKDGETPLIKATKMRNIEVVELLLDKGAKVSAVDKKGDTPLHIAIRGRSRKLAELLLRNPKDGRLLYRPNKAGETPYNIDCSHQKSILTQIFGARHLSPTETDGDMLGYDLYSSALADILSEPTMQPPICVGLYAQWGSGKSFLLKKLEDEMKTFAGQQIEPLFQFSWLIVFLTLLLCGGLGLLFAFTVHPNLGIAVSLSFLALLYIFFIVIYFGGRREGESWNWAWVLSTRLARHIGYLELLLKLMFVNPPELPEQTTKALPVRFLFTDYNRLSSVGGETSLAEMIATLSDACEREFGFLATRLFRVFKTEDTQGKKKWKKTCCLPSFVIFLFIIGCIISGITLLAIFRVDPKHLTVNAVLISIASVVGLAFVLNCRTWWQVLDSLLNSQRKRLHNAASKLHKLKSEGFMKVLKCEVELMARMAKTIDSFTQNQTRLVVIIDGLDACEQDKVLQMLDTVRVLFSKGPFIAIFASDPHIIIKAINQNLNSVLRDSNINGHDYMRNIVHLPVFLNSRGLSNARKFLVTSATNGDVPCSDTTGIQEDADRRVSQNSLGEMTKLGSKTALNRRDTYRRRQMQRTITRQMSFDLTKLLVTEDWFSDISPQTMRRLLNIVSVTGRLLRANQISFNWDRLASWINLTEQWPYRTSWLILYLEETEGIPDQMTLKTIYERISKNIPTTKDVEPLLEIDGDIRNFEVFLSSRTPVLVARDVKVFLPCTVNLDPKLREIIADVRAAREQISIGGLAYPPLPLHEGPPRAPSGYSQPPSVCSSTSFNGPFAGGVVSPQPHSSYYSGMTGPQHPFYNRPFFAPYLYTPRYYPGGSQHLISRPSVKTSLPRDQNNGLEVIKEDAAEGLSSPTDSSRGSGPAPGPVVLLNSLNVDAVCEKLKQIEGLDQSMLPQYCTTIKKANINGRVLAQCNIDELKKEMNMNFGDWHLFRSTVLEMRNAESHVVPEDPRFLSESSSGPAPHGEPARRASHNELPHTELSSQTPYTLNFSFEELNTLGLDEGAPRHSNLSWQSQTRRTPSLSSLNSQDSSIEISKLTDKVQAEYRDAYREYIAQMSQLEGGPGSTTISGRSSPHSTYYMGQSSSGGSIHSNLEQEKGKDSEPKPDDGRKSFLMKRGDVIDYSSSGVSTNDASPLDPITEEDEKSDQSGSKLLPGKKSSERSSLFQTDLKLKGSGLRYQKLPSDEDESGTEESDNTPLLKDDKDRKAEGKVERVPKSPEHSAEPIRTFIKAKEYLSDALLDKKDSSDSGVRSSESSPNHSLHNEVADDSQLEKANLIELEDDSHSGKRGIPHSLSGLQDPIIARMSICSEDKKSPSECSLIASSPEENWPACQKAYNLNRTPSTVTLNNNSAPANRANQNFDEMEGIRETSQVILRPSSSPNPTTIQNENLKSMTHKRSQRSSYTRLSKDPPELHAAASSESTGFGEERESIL
UniProt O00505, whole entry: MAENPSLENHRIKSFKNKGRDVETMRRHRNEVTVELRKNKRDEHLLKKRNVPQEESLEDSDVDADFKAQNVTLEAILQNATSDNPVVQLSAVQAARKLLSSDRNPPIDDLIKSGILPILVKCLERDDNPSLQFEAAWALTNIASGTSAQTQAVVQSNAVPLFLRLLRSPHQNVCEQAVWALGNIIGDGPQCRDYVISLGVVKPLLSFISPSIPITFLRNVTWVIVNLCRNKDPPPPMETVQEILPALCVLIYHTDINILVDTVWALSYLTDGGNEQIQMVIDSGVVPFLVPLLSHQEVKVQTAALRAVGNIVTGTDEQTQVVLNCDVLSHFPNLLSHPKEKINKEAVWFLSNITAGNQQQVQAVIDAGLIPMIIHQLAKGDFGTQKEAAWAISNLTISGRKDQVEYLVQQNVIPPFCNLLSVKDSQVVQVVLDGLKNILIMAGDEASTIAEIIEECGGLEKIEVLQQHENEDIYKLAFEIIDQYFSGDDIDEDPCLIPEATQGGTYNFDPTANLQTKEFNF
UniProt Q8TCA0: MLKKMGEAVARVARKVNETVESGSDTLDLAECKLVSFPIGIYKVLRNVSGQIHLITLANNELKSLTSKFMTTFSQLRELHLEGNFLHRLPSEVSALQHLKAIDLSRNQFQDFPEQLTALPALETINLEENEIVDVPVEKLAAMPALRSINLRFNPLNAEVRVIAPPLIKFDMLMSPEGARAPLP
UniProt Q9HD34: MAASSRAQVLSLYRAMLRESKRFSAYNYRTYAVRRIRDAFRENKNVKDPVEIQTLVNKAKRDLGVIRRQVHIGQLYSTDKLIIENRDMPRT
UniProt P13796: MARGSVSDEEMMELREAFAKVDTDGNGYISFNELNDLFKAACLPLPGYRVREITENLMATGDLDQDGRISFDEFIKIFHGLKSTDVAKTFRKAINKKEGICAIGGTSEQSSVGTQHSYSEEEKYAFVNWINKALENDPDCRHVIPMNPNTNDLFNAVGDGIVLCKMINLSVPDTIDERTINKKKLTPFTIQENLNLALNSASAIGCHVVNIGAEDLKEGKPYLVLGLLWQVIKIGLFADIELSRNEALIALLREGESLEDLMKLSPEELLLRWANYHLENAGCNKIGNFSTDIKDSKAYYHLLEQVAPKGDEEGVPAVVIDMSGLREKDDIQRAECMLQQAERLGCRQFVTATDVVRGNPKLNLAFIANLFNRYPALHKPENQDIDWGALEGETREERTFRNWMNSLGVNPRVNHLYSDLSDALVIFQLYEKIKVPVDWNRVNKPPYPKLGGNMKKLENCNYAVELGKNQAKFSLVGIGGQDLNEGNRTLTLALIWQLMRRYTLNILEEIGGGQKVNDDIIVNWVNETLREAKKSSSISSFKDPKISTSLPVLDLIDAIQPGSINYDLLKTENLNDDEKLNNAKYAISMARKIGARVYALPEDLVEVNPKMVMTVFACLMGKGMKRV
UniProt Q96AT1: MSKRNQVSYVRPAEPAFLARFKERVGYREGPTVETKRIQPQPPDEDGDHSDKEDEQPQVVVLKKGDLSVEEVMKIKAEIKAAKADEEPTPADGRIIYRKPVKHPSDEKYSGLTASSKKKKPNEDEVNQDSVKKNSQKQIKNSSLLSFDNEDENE
UniProt Q8WV93: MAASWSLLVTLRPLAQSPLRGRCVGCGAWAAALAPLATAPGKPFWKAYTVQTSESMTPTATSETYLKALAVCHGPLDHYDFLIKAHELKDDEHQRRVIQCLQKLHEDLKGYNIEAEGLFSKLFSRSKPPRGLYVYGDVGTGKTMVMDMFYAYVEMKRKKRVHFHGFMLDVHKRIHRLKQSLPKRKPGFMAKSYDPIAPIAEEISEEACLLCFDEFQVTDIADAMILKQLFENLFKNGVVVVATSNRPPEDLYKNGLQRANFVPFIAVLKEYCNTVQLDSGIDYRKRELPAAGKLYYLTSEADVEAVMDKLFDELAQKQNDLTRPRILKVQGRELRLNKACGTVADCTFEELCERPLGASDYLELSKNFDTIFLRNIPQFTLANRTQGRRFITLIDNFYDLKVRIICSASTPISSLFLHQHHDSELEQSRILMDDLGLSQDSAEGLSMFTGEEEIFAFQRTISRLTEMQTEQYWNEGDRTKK
UniProt P01130: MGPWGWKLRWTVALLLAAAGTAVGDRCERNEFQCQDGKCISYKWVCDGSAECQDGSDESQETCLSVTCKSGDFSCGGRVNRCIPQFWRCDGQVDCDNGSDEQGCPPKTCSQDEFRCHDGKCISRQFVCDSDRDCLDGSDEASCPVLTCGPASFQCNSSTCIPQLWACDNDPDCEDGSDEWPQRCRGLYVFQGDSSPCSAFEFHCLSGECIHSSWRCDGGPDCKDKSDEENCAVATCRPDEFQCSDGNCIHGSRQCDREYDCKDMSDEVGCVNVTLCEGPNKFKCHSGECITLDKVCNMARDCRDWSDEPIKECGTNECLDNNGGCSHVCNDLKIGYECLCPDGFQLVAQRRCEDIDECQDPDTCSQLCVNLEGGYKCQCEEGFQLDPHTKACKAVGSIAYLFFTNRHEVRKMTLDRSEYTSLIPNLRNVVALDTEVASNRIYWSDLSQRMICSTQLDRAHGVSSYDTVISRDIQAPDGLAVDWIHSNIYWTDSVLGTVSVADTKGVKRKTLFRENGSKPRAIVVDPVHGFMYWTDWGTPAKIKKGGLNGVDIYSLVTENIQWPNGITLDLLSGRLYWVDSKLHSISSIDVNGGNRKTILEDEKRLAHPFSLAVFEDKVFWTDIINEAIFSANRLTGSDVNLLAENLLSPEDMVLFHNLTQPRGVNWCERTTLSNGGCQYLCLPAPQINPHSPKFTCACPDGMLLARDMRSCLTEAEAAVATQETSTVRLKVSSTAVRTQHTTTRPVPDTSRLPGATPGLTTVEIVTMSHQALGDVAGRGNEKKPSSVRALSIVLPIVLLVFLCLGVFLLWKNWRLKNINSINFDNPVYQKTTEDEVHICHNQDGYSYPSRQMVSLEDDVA
UniProt Q53H82: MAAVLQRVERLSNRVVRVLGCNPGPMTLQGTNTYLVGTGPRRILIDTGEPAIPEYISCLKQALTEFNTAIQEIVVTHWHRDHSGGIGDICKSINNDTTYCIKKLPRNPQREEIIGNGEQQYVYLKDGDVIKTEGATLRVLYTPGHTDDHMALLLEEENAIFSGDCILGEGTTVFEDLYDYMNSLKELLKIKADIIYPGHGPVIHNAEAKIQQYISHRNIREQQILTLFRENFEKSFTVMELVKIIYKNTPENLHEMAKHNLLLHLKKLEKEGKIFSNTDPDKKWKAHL

Compound: COc1ccc(Cn2ccc3ccc(C(=O)NO)cc32)cc1
Assay: dose-dependent thermal stabilisation call (2D-TPP, DLPTP, 10% FDR) (binary (1 = stabilised)); higher = stabilised by the compound
Details: system: HL-60 intact cells; concentration range 0.04-10 µM

Target | dose-dependent thermal stabilisation call
LGALS8 (UniProt O00214) | inactive: 0
LAGE3 (UniProt Q14657) | inactive: 0
LRPPRC (UniProt P42704) | inactive: 0
KIAA1467 (UniProt A2RU67) | inactive: 0
LIMK2 (UniProt P53671) | inactive: 0
KIDINS220 (UniProt Q9ULH0) | inactive: 0
KPNA3 (UniProt O00505) | inactive: 0
LRBA (UniProt P50851) | inactive: 0
LIG4 (UniProt P49917) | inactive: 0
LIAS (UniProt O43766) | inactive: 0
KIF23 (UniProt Q02241) | inactive: 0
LRRC20 (UniProt Q8TCA0) | inactive: 0
KIAA1524 (UniProt Q8TCG1) | inactive: 0
LYRM4 (UniProt Q9HD34) | inactive: 0
LMNB1 (UniProt P20700) | inactive: 0
LRP6 (UniProt O75581) | inactive: 0
LCP1 (UniProt P13796) | inactive: 0
KIF1B (UniProt O60333) | inactive: 0
KIAA1143 (UniProt Q96AT1) | inactive: 0

Target | dose-dependent thermal stabilisation call
LIMA1 (UniProt Q9UHB6) | inactive: 0
LSMD1 (UniProt Q9BRA0) | inactive: 0
LOC100132129 | inactive: 0
LAMP2 (UniProt P13473) | inactive: 0
KPNB1 (UniProt Q14974) | inactive: 0
LACE1 (UniProt Q8WV93) | inactive: 0
LYPLA1 (UniProt O75608) | active: 1
LYSMD2 (UniProt Q8IV50) | inactive: 0
LDLR (UniProt P01130) | inactive: 0
MAGEB2 (UniProt O15479) | inactive: 0
LEMD2 (UniProt Q8NC56) | inactive: 0
LOC100130932 | inactive: 0
LOC388474 | inactive: 0
KLHL11 (UniProt Q9NVR0) | inactive: 0
KIAA1310 (UniProt Q9P2N6) | inactive: 0
KPNA6 (UniProt O60684) | inactive: 0
LACTB2 (UniProt Q53H82) | inactive: 0
KIAA0859 (UniProt Q8N6R0) | inactive: 0

Reprinted at random: 2 entries already listed
Target | dose-dependent thermal stabilisation call
LAMP2 (UniProt P13473) | inactive: 0
LOC100132129 | inactive: 0
